From PMC9508095
Results are given in words; binding and its absence hold for the method and conditions named. Binding seen in cells or lysates may run through a third protein. Binding can be weak; no strength is given.

The chains behind the UniProt entries cited, without tags or fusion partners. Where a name states a change or a piece, a line headed by the entry shows the natural chain unless it says otherwise.
UniProt Q96LW7: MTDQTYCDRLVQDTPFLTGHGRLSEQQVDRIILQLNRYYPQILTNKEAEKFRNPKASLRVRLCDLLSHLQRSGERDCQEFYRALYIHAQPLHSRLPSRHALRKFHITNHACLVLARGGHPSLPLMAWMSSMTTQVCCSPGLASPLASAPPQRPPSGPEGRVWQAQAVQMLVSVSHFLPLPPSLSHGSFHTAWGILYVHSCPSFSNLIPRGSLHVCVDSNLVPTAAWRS
UniProt Q14653: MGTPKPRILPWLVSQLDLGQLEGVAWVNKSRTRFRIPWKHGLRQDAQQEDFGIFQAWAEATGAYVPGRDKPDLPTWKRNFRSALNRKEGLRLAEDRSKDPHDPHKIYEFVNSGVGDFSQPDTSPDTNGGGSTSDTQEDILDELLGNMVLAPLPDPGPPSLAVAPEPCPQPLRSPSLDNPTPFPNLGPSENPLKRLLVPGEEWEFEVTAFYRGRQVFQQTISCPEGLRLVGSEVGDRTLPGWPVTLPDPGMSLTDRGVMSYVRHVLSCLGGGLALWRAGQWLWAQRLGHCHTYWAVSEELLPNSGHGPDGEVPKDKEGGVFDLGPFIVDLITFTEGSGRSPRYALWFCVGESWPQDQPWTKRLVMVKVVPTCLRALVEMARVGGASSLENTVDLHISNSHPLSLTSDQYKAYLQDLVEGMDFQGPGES
UniProt Q7Z434: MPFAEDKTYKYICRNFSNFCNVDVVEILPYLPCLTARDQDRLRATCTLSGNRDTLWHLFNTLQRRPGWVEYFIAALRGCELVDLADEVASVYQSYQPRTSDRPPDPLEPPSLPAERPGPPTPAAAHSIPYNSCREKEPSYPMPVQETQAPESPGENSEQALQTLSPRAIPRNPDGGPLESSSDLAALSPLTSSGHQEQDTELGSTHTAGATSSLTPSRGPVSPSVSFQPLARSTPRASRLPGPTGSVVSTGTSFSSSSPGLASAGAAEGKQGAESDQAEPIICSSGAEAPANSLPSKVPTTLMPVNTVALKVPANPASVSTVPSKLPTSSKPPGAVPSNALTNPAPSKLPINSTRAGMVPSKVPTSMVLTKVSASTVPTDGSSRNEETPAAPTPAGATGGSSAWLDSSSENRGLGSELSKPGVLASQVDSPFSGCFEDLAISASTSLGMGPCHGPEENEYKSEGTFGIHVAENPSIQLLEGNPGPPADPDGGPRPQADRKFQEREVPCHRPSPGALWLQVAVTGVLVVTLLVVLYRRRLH
UniProt O95786: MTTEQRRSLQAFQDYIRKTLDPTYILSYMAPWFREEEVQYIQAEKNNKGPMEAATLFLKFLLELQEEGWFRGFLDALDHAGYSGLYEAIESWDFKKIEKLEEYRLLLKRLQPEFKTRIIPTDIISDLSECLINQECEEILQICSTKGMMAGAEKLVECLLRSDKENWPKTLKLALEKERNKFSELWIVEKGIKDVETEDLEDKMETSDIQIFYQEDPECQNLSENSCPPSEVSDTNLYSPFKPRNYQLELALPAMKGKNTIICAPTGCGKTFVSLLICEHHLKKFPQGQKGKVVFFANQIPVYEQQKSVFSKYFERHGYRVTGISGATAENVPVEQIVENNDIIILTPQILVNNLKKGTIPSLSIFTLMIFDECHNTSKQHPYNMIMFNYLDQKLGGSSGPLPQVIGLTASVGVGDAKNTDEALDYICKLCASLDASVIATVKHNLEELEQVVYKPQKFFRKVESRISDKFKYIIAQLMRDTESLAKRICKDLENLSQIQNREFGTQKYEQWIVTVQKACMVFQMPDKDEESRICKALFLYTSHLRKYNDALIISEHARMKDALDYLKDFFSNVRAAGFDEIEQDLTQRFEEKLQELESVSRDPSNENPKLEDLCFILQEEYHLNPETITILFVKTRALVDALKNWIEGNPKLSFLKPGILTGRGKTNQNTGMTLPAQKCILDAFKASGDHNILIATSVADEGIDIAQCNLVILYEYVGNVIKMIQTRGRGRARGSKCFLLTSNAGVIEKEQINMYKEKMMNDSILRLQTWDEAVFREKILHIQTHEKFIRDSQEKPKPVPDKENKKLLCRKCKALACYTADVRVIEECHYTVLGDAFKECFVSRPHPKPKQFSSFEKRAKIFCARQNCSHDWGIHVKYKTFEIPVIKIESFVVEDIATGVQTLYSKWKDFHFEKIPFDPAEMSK
UniProt Q13114: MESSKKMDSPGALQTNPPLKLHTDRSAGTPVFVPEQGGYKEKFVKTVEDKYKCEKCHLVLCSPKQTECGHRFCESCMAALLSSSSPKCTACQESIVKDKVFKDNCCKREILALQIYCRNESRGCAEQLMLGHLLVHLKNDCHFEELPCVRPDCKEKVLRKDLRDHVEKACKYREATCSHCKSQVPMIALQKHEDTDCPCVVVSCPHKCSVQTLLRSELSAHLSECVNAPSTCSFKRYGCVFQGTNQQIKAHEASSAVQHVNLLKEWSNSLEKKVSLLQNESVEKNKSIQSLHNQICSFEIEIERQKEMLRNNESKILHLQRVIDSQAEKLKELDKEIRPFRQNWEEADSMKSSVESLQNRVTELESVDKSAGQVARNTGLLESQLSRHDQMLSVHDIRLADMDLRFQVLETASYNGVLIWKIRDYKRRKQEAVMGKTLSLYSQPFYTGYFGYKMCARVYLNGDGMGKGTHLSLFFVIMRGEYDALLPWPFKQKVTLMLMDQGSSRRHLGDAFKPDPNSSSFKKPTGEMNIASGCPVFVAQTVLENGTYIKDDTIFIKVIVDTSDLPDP
UniProt P15682: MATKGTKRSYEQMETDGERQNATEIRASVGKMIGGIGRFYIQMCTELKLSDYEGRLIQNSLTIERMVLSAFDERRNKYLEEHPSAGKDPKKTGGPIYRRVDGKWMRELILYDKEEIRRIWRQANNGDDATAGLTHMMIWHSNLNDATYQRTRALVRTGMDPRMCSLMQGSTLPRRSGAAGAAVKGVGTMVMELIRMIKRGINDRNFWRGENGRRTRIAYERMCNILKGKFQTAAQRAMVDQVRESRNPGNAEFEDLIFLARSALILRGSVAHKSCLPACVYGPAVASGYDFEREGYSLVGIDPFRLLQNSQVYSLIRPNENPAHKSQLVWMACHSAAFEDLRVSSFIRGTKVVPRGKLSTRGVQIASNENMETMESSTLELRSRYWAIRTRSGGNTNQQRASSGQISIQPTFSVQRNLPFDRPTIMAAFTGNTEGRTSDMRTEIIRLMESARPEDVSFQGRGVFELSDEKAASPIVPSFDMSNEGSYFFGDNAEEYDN

Tests used:
[1] = biological target: Myc-tagged BinCARD1 (human) (UniProt Q96LW7); assay: co-IP; HEK293T co-transfected with the indicated plasmids, lysed 36 h p.t. in IP lysis buffer (Pierce), primary antibody then Protein G-Agarose at 4 °C, western blot; in some panels a third protein (BinCARD1 or TRAF3) was coexpressed
[2] = biological target: Flag-tagged BinCARD1 (human) (UniProt Q96LW7); assay: co-IP
[3] = biological target: BinCARD1 (human) (UniProt Q96LW7); assay: co-IP

Substance	binding [1]	binding [2]	binding [3]
Flag-tagged IRF3 (from UniProt Q14653 1-427)	no binding	–	–
Flag-tagged MAVS (from UniProt Q7Z434 1-540)	no binding	–	–
Flag-tagged RIG-I (from UniProt O95786 1-925)	no binding	–	–
Flag-tagged TRAF3 (from UniProt Q13114 1-568)	binds	–	–
NP of WSN (H1N1) virus in infected cells (from UniProt P15682 1-498)	–	binds	–
V5-tagged WSNNP (from UniProt P15682 1-498)	–	binds	binds
endogenous IMP α7 (from UniProt O60684 1-536)	–	binds	–
